Test [1] concerns the target GST-tagged full-length HMR (GST-HMR) (Arabidopsis thaliana). Description: pull-down; pulldown of HMR22 (D516N) against wild-type HMR with RCB; details only in Supplementary Fig. 2.
Test [2] shares this target. Description: pull-down; GST or GST-HMR baits immobilized on glutathione Sepharose beads; in vitro translated HA-RCB preys, 4 °C for 2 h; washed with E buffer (50 mM Tris-HCl pH 7.5, 100 mM NaCl, 0.1% Nonidet P-40); anti-HA immunoblot; only the target purified. On the technique in general: In western blotting, separated proteins are transferred to a membrane and probed.

These are yes or no findings as the source states them, for the method shown. In cells and extracts the contact can be indirect. A result given as binding can be weak or reduced; the word gives no strength. Where a sequence is shown, tags or fusion partners need not be part of it.

B1: HA-tagged full-length RCB (HA-RCB) (protein, UniProt F4JLC1 1-331)
chain: MSFFAVACSAPRSSMLLTGLNSSFSDMHRSPLFVFPVTISSRSVKRFAAVSSDSVLDPESKNQTRSRRKNKEAVTPIAETENNEKFPTKVPRKSKRGRRSEADAVEDYVRSSLERTFSTIKEQNPEVFENKEKANFIKDRGVDEEEEEEEEMVVEEEDPDWPVDTDVGWGIKASEYFDTHPIKNVVGDDGSEIDWEGEIDDSWVKEINCLEWESFAFHPSPLVVLVFERYKRASDNWKTLKELEKAIKVYWDAKDRLPPRAVKIDLNIETDLAYALKAKECPQILFLRGNRILYREKDFRTADELVHMIAHFYYKAKRPSCVDKANVTPYC
Regarding B1, the binding result in test [1] and in test [2] was “binds” each time.

Source of the values: publication PMC8024306.
